Assay results from PubChem BioAssay AID248 (DTP/NCI, 2004).
The list does not hold the whole screen: it is rich in T/C values a quarter to a half above the control, in often repeated tests (any T/C) and in doses without a T/C. Further doses and runs are listed elsewhere. T/C: endpoint of the treated group in % of that of the vehicle group. Some doses have a count of surviving animals in place of a T/C: the source files T/C as zero there, which appears to mark a toxic dose or a test without result, not a measured value. Some doses without a T/C left all or most animals alive at the check, yet need not have been tolerated: the source hardly ever lists a survival T/C far under the control, and the zero likely stands for such cases as well. Counts of survivors are from the toxicity check (mostly the fifth day) where no day follows; animals may have died later. Schedule codes are those of the source, read here as Q, the interval in days (D) or hours (H), X, the number of doses. Some entries were tested several times; their values stand side by side, smallest first. Some schedules carry Z or #; the key to these is not given. Some molecules as drawn cover several salts, stereoisomers or complexes of the source; a dose is that of the sample tested. Where survival is the endpoint, the PubChem record calls one and a half times the control and up active, and a quarter to a half above the control has no call in these data; cut-offs in other NCI protocols can differ. Brackets with × stand for listed records that agree.

Test system: L1210 leukemia ip in BDF1 mice, survival T/C
Experiment: NCI In Vivo Anticancer Drug Screen. Data for tumor model L1210 Leukemia (intraperitoneal) in B6D2F1 (BDF1) mice
Conditions: T/C endpoint: mean survival time, higher T/C = longer survival
[1] = dose: 200.0 mg/kg/injection, schedule: Q04DX003 (ip), vehicle: saline with Tween-80
[2] = dose: 400.0 mg/kg/injection, schedule: Q04DX003 (ip), vehicle: saline with Tween-80
[3] = dose: 200.0 mg/kg/injection, schedule: Q04DX002 (ip), vehicle: saline
[4] = dose: 400.0 mg/kg/injection, schedule: Q04DX002 (ip), vehicle: saline
[5] = dose: 400.0 mg/kg/injection, schedule: Q01DX001 (ip), vehicle: saline
[6] = dose: 100.0 mg/kg/injection, schedule: Q01DX009 (ip), vehicle: saline with Tween-80
[7] = dose: 200.0 mg/kg/injection, schedule: Q01DX009 (ip), vehicle: saline with Tween-80
[8] = dose: 400.0 mg/kg/injection, schedule: Q01DX009 (ip), vehicle: saline with Tween-80
[9] = dose: 200.0 mg/kg/injection, schedule: Q04DX003 (ip), vehicle: saline
[10] = dose: 400.0 mg/kg/injection, schedule: Q04DX003 (ip), vehicle: saline
[11] = dose: 200.0 mg/kg/injection, schedule: Q01DX009 (ip), vehicle: Klucel (hydroxypropylcellulose) (HPC)
[12] = dose: 50.0 mg/kg/injection, schedule: Q01DX009 (ip), vehicle: saline with Tween-80

`Cc1ccccc1[As](c1ccccc1C)c1ccccc1C` was tested, and the survivor count [1] was 6 of 6 and the survivor count [2] was 5 of 6.
In the case of `O=C(OCC1OCC(OC(=O)c2ccccc2)C1OC(=O)c1ccccc1)c1ccccc1` (stereo not given), the survivor count (dose: 400.0 mg/kg/injection, schedule: Q01DX001 (ip), vehicle: saline with Tween-80) is reported as 3 of 3.
In the case of `CCC1SC(=S)N(C(=O)c2ccc([N+](=O)[O-])cc2)C1CC` (stereo not given), the survivor count (dose: 100.0 mg/kg/injection, schedule: Q04DX002 (ip), vehicle: Klucel (hydroxypropylcellulose) (HPC)) is reported as 1 of 3.
For `CC(C)([CH2][Sn]([Cl])([Cl])[CH2]C(C)(C)c1ccccc1)c1ccccc1`, the survivor count (dose: 1.56 mg/kg/injection, schedule: Q04DX002 (ip), vehicle: saline with Tween-80) was 3 of 3, the survivor count (dose: 6.25 mg/kg/injection, schedule: Q04DX002 (ip), vehicle: saline with Tween-80) was 3 of 3 and the survivor count (dose: 12.5 mg/kg/injection, schedule: Q04DX002 (ip), vehicle: saline with Tween-80) was 0 of 3.
In the case of `CC(=O)NCS(=O)(=O)O`, the survivor count (dose: 400.0 mg/kg/injection, schedule: Q01DX009 (ip), vehicle: saline) is reported as 6 of 6.
With `N#Cc1ccccc1C(N)=O` the survivor count [3] was 1 of 3 and the survivor count [4] was 0 of 3.
In the case of `COC(=O)CCc1ccc(NP(=O)(N2CC2)N2CC2)cc1`, the T/C (dose: 100.0 mg/kg/injection, schedule: Q01DX015 (ip), vehicle: carboxymethylcellulose (CMC)) is reported as 136 % of control and the survivor count (dose: 200.0 mg/kg/injection, schedule: Q01DX015 (ip), vehicle: carboxymethylcellulose (CMC)) is reported as 5 of 6.
In the case of `O=C(O)c1cc(S(=O)(=O)Cl)cc(S(=O)(=O)Cl)c1`, the survivor count (dose: 150.0 mg/kg/injection, schedule: Q01DX001 (ip), vehicle: saline) is reported as 0 of 6 and the survivor count (dose: 300.0 mg/kg/injection, schedule: Q01DX001 (ip), vehicle: saline) is reported as 1 of 6.
In the case of `Cc1cc(Cl)cc(CN(C)C)c1O.[Cu+2]`, the survivor count [5] is reported as 0 of 4.
With `CN(C)c1ccc(O)c2c1CC1CC3C(N(C)C)C(=O)C(C(N)=O)=C(O)C3(O)C(=O)C1=C2O` (stereo not given) the survivor count [2] was 0 of 6.
In the case of `CCCC(=O)CCCCNC(=O)c1ccccc1`, the survivor count (dose: 400.0 mg/kg/injection, schedule: Q04DX002 (ip), vehicle: saline with Tween-80) is reported as 1 of 3.
In the case of `Cc1c(Cl)c(C)c(Cl)c(O)c1Cl` (tested in a mixture with another compound), the survivor count [6] is reported as 1 of 3 and the survivor count (dose: 400.0 mg/kg/injection, schedule: Q04DX002 (ip), vehicle: other) is reported as 0 of 3.
`NC(N)=N/N=C/C(F)(F)F` was tested, and the survivor count (dose: 600.0 mg/kg/injection, schedule: Q01DX Z (ip), vehicle: methylcellulose (MC)) was 2 of 6.
With `O=C(CCN1C(=O)c2ccccc2C1=O)c1ccc(O)cc1` the survivor count [6] was 3 of 6, the survivor count [7] was 4 of 6 and the survivor count [8] was 1 of 6.
For `CC(C)N=Cc1ccccc1O.CC(C)N=Cc1ccccc1O.[Ni]`, the survivor count [9] was 2 of 6 and the survivor count [10] was 0 of 6.
In the case of `NC1CC1c1ccccc1` (stereo not given), the survivor count (dose: 12.5 mg/kg/injection, schedule: Q04DX003 (ip), vehicle: saline) is reported as 0 of 6, the survivor count (dose: 150.0 mg/kg/injection, schedule: Q01DX009 (ip), vehicle: saline) is reported as 0 of 6 and the survivor count [9] is reported as 2 of 4 and 3 of 6. The survivor count (dose: 225.0 mg/kg/injection, schedule: Q01DX009 (ip), vehicle: saline) was 0 of 6, the survivor count (dose: 335.0 mg/kg/injection, schedule: Q01DX009 (ip), vehicle: saline) was 0 of 6 and the survivor count [10] was 1 of 6.
In the case of `CC(=O)NN(N=O)C(C)c1ccccc1` (stereo not given), the survivor count (dose: 400.0 mg/kg/injection, schedule: Q04DX002 (ip), vehicle: Klucel (hydroxypropylcellulose) (HPC)) is reported as 0 of 3.
`Clc1ccc(C2=NCCN2)cc1` was tested, and the survivor count (dose: 75.0 mg/kg/injection, schedule: Q01DX001 (ip), vehicle: other) was 3 of 6, the survivor count (dose: 150.0 mg/kg/injection, schedule: Q01DX001 (ip), vehicle: other) was 0 of 6 and the survivor count (dose: 300.0 mg/kg/injection, schedule: Q01DX001 (ip), vehicle: other) was 0 of 6.
With `c1ccc([P+](c2ccccc2)(c2ccccc2)c2ccc(-c3ccc([P+](c4ccccc4)(c4ccccc4)c4ccccc4)cc3)cc2)cc1` the survivor count (dose: 6.0 mg/kg/injection, schedule: Q01DX009 (ip), vehicle: Klucel (hydroxypropylcellulose) (HPC)) was 1 of 6, the survivor count (dose: 12.0 mg/kg/injection, schedule: Q01DX009 (ip), vehicle: Klucel (hydroxypropylcellulose) (HPC)) was 6 of 6 and the survivor count (dose: 25.0 mg/kg/injection, schedule: Q01DX009 (ip), vehicle: Klucel (hydroxypropylcellulose) (HPC)) was 0 of 6. The survivor count (dose: 50.0 mg/kg/injection, schedule: Q01DX009 (ip), vehicle: Klucel (hydroxypropylcellulose) (HPC)) was 0 of 6, the survivor count (dose: 100.0 mg/kg/injection, schedule: Q01DX009 (ip), vehicle: Klucel (hydroxypropylcellulose) (HPC)) was 0 of 6 and the survivor count [11] was 0 of 6. For the same compound, the survivor count (dose: 300.0 mg/kg/injection, schedule: Q01DX009 (ip), vehicle: Klucel (hydroxypropylcellulose) (HPC)) was 0 of 6.
In the case of `CCN(CC)CCn1c2ccccc2c2cc3cnccc3c(C)c21`, the survivor count (dose: 300.0 mg/kg/injection, schedule: Q04DX003 (ip), vehicle: Klucel (hydroxypropylcellulose) (HPC)) is reported as 8 of 10.
With `CCOC(=O)OC(C#N)c1ccccc1` (stereo not given) the survivor count [12] was 0 of 6, the survivor count [6] was 0 of 6 and the survivor count [7] was 0 of 6. The survivor count [8] was 0 of 6.
`CN(C)C1(Cc2ccccc2)c2ccccc2-c2ccc(Br)cc21` (stereo not given) was tested, and the survivor count [12] was 6 of 6 and the survivor count [7] was 6 of 6.
In the case of `S=C(NCc1ccccc1)NC1CCCCC1`, the survivor count [9] is reported as 2 of 6.
For `CCC1CCCCN1CCNc1ccc(CO)c2sc3ccccc3c(=O)c12` (stereo not given), the survivor count (dose: 400.0 mg/kg/injection, schedule: Q01DX009 (ip), vehicle: Klucel (hydroxypropylcellulose) (HPC)) was 3 of 6.
In the case of `N#CCCNC(Cc1ccc(O)cc1)C(=O)O` (stereo not given), the survivor count (dose: 200.0 mg/kg/injection, schedule: Q04DX003 (ip), vehicle: Klucel (hydroxypropylcellulose) (HPC)) is reported as 1 of 6 and the survivor count (dose: 400.0 mg/kg/injection, schedule: Q04DX003 (ip), vehicle: Klucel (hydroxypropylcellulose) (HPC)) is reported as 1 of 6.
With `CC(C)C(=O)NNCc1ccccc1` the survivor count [11] was 0 of 6.
In the case of `CCCCCCCCCCCCCCCCNC(=S)N/N=C/C(C)=N/NC(=S)NCCCCCCCCCCCCCCCC`, the survivor count (dose: 480.0 mg/kg/injection, schedule: Q01DX Z (ip), vehicle: carboxymethylcellulose (CMC)) is reported as 4 of 6.
With `CC1(C)Oc2c(ccc(O)c2CN2CCCCC2)C2=C1CCCC2` the survivor count (dose: 200.0 mg/kg/injection, schedule: Q01DX001 (ip), vehicle: saline) was 3 of 6 and the survivor count [5] was 1 of 6.
With `O=C1OC(=O)C2C3C=CC(CC12)O3` (stereo not given) the survivor count (dose: 25.0 mg/kg/injection, schedule: Q01DX009 (ip), vehicle: saline with Tween-80) was 1 of 6, the survivor count (dose: 100.0 mg/kg/injection, schedule: Q04DX003 (ip), vehicle: saline with Tween-80) was 1 of 6 and the survivor count [1] was 0 of 6. For the same compound, the survivor count [2] was 1 of 6.
With `COc1ccc(N)c(CC2c3ccccc3CCN2C)c1` (stereo not given) the survivor count (dose: 200.0 mg/kg/injection, schedule: Q01DX001 (ip), vehicle: carboxymethylcellulose (CMC)) was 0 of 4 and the survivor count (dose: 400.0 mg/kg/injection, schedule: Q01DX001 (ip), vehicle: carboxymethylcellulose (CMC)) was 0 of 4.
In the case of `O=C1C(Cl)=C(Nc2nc3ccccc3s2)C(=O)c2ccccc21`, the survivor count (dose: 100.0 mg/kg/injection, schedule: Q01DX001 (ip), vehicle: Klucel (hydroxypropylcellulose) (HPC)) is reported as 3 of 3, the survivor count (dose: 200.0 mg/kg/injection, schedule: Q01DX001 (ip), vehicle: Klucel (hydroxypropylcellulose) (HPC)) is reported as 0 of 3 and the survivor count (dose: 400.0 mg/kg/injection, schedule: Q01DX001 (ip), vehicle: Klucel (hydroxypropylcellulose) (HPC)) is reported as 0 of 3.
`CCCCOP(=O)(OCCCC)O/C(C)=C(\C)OP(=O)(OCC)OCC` was tested, and the T/C (dose: 100.0 mg/kg/injection, schedule: Q04DX002 (ip), vehicle: saline) was 95, 97 (2×), 101 % of control, the survivor count [3] was 3 of 3 and the survivor count [4] was 2 of 6 and 3 of 3.
In the case of `Nc1ncnc2c1ncn2CCCCl`, the survivor count [10] is reported as 0 of 6.
